This passage reports binding results from paper PMC7897486.

Amino acid sequences for entries named in this document (tags omitted).
UniProt Q01167: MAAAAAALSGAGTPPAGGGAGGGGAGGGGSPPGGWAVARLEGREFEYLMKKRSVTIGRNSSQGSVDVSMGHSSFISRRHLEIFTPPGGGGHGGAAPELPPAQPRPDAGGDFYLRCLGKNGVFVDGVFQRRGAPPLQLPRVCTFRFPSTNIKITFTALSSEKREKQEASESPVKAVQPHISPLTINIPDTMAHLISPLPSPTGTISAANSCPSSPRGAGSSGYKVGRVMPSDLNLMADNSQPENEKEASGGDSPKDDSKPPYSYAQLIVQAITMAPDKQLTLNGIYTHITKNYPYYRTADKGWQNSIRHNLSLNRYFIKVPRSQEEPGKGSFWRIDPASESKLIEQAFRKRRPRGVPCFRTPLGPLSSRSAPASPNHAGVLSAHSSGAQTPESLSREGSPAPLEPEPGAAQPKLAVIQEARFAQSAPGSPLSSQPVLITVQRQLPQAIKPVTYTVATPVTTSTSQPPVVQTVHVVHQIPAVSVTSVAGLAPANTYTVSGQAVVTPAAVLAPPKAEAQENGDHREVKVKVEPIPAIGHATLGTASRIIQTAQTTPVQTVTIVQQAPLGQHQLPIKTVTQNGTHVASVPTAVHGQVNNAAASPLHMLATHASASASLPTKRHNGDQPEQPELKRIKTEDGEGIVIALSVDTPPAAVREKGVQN
UniProt Q13547: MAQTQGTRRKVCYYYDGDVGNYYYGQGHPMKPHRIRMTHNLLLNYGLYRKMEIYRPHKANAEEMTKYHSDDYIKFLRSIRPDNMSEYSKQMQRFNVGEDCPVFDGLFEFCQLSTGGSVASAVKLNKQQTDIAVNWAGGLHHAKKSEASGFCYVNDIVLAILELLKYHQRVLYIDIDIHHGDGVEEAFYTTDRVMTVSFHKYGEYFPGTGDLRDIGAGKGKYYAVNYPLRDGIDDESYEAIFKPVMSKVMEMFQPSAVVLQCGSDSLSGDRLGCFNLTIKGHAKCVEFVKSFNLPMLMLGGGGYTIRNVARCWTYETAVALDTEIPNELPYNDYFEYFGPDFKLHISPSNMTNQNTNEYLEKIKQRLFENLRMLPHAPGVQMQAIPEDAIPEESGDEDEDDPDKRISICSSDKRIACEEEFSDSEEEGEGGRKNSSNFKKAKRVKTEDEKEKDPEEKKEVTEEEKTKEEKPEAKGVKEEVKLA

These are yes or no findings as the source states them, for the method shown. In cells and extracts the contact can be indirect. Some binding calls cover weakened binding; strength is not graded here.

For the test, the target named is FOXK2 with a C-terminal HA-eDHFR degron, expressed from the endogenous locus (H1-FOXK2-DHFR ESCs) (human (endogenous in H1 ESCs)) (UniProt Q01167). Put plainly: co-IP; immunoprecipitation with anti-FOXK2 antibody (Bethyl A301-729A) from whole cell lysates of H1-FOXK2-DHFR ESCs cultured with 10 uM TMP (FOXK2 stable) or without TMP (FOXK2 degraded); Western blot. (In western blotting, separated proteins are transferred to a membrane and probed.)

Regarding HDAC1 (from UniProt Q13547 1-482), the binding entry was “binds”.
